Measurements taken from the supplement of paper PMC5949888.
Most values lie at the floor of the assay. Slopes are relative: functional sequences can read slightly below zero.

System: Saccharomyces cerevisiae PS128 hsf1 delta, HSF1(1-493) fusion
Assay: growth estimate (transactivation domain function in HSF1 fusion, heat-shock survival) (a.u. (slope of normalised read count over time)); higher = stronger growth at 37°C, i.e. more transactivation activity
Conditions: library: random library
Procedure: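 Random 60-nt DNA library encoding peptides of up to 20 aa, fused to the C-terminus of yeast HSF1 residues 1-493 (C-terminal TAD deleted) and expressed from the native HSF1 promoter on a CEN plasmid in hsf1-deleted S. cerevisiae PS128. Cells were selected at 37°C on -trp 5-FOA plates for 0, 2, 4, 6 and 8 days and amplicons were sequenced. Growth estimate is the slope of a robust linear fit of total-sum-normalised read counts (normalised to the first time point) over time, using at least 2 replicates. Sequences are classed functional (TAD activity) above a threshold of -0.13, set from stop-codon control sequences.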

Substance | growth estimate
PTFADDP | < -0.25
APQTLRVLSNQ | < -0.25
SSVTL | < -0.25
RQTG | < -0.25
SSRGT | < -0.25
IRLECSERSTI | < -0.25
SDCRIGS | < -0.25
LGGFFLVNMLFLRLNVVEHI | < -0.25
WYLGQLWEMG | < -0.25
PGENLPCQISLEPSSIVAPI | < -0.25
IFKLSSTVQD | < -0.25
GGVYSPFGNGLFYHNYSLLS | < -0.25
TMVRHFVLRRSVKSWFVSRT | < -0.25
FTRS | < -0.25
LSGKLSEDWWVECWQGHASR | < -0.25
FEIDTLGRPGWWALGPSQSR | < -0.25
ARLTRAPR | < -0.25
RADRVKEW | < -0.25
SILSAEGTNSQQLSSLKEQK | < -0.25
RWLGSSVSDFGFTKRVTFSP | < -0.25
LSIVA | < -0.25
RDHAVSCTLLRPSFQLKAIR | < -0.25
TAQRSPATG | < -0.25
KNALCLR | < -0.25
IGAFTPAVRDVLTRTTPGSW | < -0.25
RHARRSGIISEVSERIGIFA | < -0.25

Substance | growth estimate
GRVVNKVSPGAIGVPVAYPA | < -0.25
PRNRNGECSAGGCIGKYISP | < -0.25
GQN | < -0.25
SHGVMRPNSTLNYVILCRLA | < -0.25
LPRLKMTGGSSANRPVPSSF | < -0.25
SLHQRGDGWGTVGIVARLAP | < -0.25
STCSEMIRAYPQVGGVSS | < -0.25
THIIIPSLRLCRRPS | < -0.25
PIRQWGRSRKWPRPL | < -0.25
YNWTIGTDEV | < -0.25
CKRDTMSQAQPLLPPLLQRT | -0.247
GRE | < -0.25
LPYSVLLIQAWRLYSESGQQ | < -0.25
RKG | < -0.25
VLDR | < -0.25
DRGISWLIKCRQRWAT | < -0.25
IFSS | < -0.25
RKL | < -0.25
LCLGGITASQSDVTYQNHGP | < -0.25
RTQSFTRKHRVQLALYGLGN | < -0.25
LRVRAMPYQVSGLRVNSDSL | < -0.25
SVQGLEGAMTLDTAAS | 0.182
TRTTITGLSNDGQCLAFITS | < -0.25
GFSICPFTRKRYLSLSIACF | < -0.25
PVSRTRCRKATPPVTLAVRC | < -0.25
FPSTVVKSHADTAVSGNLPL | < -0.25

Substance | growth estimate
QVTYSFTEGGFSEVWTSATG | < -0.25
ELI | < -0.25
LRQKVGLL | < -0.25
NCRLGARGVPGGEGVSFLEE | < -0.25
VIVTSEPRRKRALAMCVHAD | < -0.25
LERGVKHYVFWQNTLTARDS | < -0.25
KGKMNRHDYNAQVCLDDRWL | < -0.25
RIYG | < -0.25
DCVG | < -0.25
QRCDYREGVETGDRICGRRT | < -0.25
ANRSRRAMDLVWSASSQRQP | < -0.25
CNHTDRW | < -0.25
VHSLHRDRSGVTPGGSSFLY | < -0.25
GQEFINGLRSEIWMEPSASR | < -0.25
LSPGDAHDGYSFARTYVYCC | -0.237
RAGVWPRRAGAKRLGISDLR | < -0.25
WWCA | < -0.25
QGASAVWSRKS | < -0.25
AQGLLLFPVPRNIVHRYAPL | < -0.25
STYSEFPARGVSHWCMRGRL | < -0.25
AVMRSVRGWCSGSVRSHRQL | < -0.25
DSSLGLGIRRLKDPAGQTPA | < -0.25
RYTQNKSPWALVDRGGRSED | < -0.25
RASGSECGVHWTQDPTA | 0.604
SESAT | < -0.25
ESEPVLTVTDKAGAKPSPIV | < -0.25

Substance | growth estimate
GESATNISQWEPKHATRDRD | < -0.25
FPLVPRCTVRAFTA | < -0.25
GRYMLVVR | < -0.25
SPTQARASVTRGVSYHSRQS | < -0.25
MLLLAGQYVEVIITQRWDIQ | < -0.25
LSFWPLTTWLALKGLHSDLR | < -0.25
ATSVWDLKPGRVDKTRHQTS | < -0.25
SPWDNLT | < -0.25
PGTVVRNLSYT | < -0.25
VTRATSELNMCARLPTVPH | < -0.25
GLSEIVYRASRRTSTYLAPT | < -0.25
TCRLKFGATISVAIEH | < -0.25
LSVMCRR | < -0.25
LGHRGE | < -0.25
THLVLFLRLSPGRVWVTPCH | < -0.25
GGVLLGPIYDIGRNESHTIP | -0.0076
LYWPAGRI | < -0.25
RCLF | < -0.25
DWQSGR | < -0.25
AGHMRGFQVLRRTYGPTRQL | < -0.25
DGCRDRNSTGYGNIEVSLFG | < -0.25
GASWGSVSS | < -0.25
VELVSAIGLELMRTIP | < -0.25
KSGIISERLDHSYNHGLCD | < -0.25
ISGGIRMALKGARSSPEVLD | < -0.25
CSTDL | < -0.25

Look-ups from the entries so far:
In growth estimate, GASWGSVSS is entered as < -0.25
In growth estimate, KSGIISERLDHSYNHGLCD is entered as < -0.25

More records:

Substance | growth estimate
WLGFSIRPFIWTFLF | < -0.25
TTVGHRFAKEFN | < -0.25
LFGGVDVGRGGLICGTQCCT | < -0.25
GKLVASRGEAHLKGGLTWTT | < -0.25
QNGGVGKPIVVISSMPASIF | < -0.25
MVPYGDF | < -0.25
GPTLLTSHKEENVCVRRSHA | < -0.25
CCPAQDYLCESGI | < -0.25
LQRSSFLCII | < -0.25
DVSLLPEQARCGTQNL | < -0.25
GLQGRPKCLG | < -0.25
VRNHLVIGIVKVIAAKNIGV | < -0.25
AFNFPRRGLALNLLLVSPTR | < -0.25
LPTGDSDSRNADDRH | < -0.25
SWIA | < -0.25
EVLMGREPLRKSCYRPFTKP | < -0.25
VQGVCAIG | < -0.25
SRDGGSPCAPYGIRSPCKLG | < -0.25
WHVCSILCQWNSNLVH | < -0.25
NTRKSSLTSRNLLGTRSQSV | < -0.25
NLLLFKRDPVQRKLRCG | < -0.25
TKCRSTAALQWFKGEYVPGH | < -0.25
LTVSS | < -0.25
NLRNLFRKE | < -0.25
FWRHRPPI | < -0.25
IPPGKHPINMAKHSGGLCSR | < -0.25

Looked up one by one from above:
Substance | growth estimate
NLRNLFRKE | < -0.25
NTRKSSLTSRNLLGTRSQSV | < -0.25
SRDGGSPCAPYGIRSPCKLG | < -0.25

The results go on:

Substance | growth estimate
PTWSGYSFVDNQAAGKRSCT | < -0.25
YGQIEGVWKAGHKRRRFEDQ | -0.231
TMRLIG | < -0.25
CSQS | < -0.25
NSGMTRRTGEVSLICLPGPR | < -0.25
RAKLCKRFGEARNIARQNVH | < -0.25
RSGGYTFLLR | < -0.25
SGWSSSAHRRRNCFLHTGGD | < -0.25
FGYNTEATVIAVPLVARLEA | < -0.25
PRTGVTRTVIYPGGGGDTTA | < -0.25
VCLCKRKALLFMMNG | < -0.25
TIARDYEMDLHCIVSRFRPH | < -0.25
GREHRLMKDCQPFC | < -0.25
RFPIH | -0.168
CTKSEHLESGSK | < -0.25
RQCLTRFCGNGVTIG | < -0.25
IGRTMFTLGGTRRLRGGS | < -0.25
LFSSAVDTRRARATLSITIA | < -0.25
GININPAFVRPGFRGLRPEM | < -0.25
DIDR | < -0.25
GVSKFGGI | < -0.25
